This is one part of the list. These are further read-outs of the screen, such as a control signal, another cell line or another target. No call is given for them. Compounds called inactive in the main read-out are mostly missing here. Words in brackets tell the shape of the fitted curve; partial curves, single points and poor fits give uncertain potencies.
Test: qHTS Assay to Find Inhibitors of Chronic Active B-Cell Receptor Signaling
Conditions: ABC-DLBCL IkBa-CBG/CBR reporter, luminescence ratio (green luciferase fused to IkBa over red control in TMD8 lymphoma cells), 4 h
Outline: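 Concentration-response series (up to 46 uM) were applied to TMD8 dual-reporter cells for 4 h at 37C with doxycycline. Green/red ratio, after filter-overlap correction, defined %Activity; red signal alone was normalised to basal cells and zero luminescence.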

[1] = measured here: CBR red luminescence, cell number
[2] = measured here: IkBa-CBG green luminescence

For `Clc1ccccc1N=C1NN=C(c2cccs2)CS1`, the AC50 [1] was 31.6 µM [falling, single point].
With `C=C(C)c1cccc(C(C)(C)NC(=O)Nc2cc(C)ccn2)c1` the AC50 [1] was 18.4 µM [falling, single point].
In the case of `CCN1CCCC1CNC(=O)c1cc2cc(OC)c(OC)cc2[nH]1` (centres undefined), the AC50 [1] is reported as 10 µM [rising, partial curve, poor fit].
In the case of `Cc1ccc(C(=O)N/C(=C/C=C/c2ccccc2)C(=O)NCc2ccco2)cc1`, the AC50 [1] is reported as 31.6 µM [rising, single point].
In the case of `Cc1ccc(NC(=O)CCNS(=O)(=O)c2ccc(Br)cc2)cc1S(=O)(=O)N1CCOCC1`, the AC50 [1] is reported as 3.66 µM [rising, full curve, poor fit].
In the case of `NC(=O)CNC(=O)[C@@H]1CC2(CC(c3cccc(Br)c3)=NO2)CN1C(=O)c1ccc(Br)cc1` (some centres undefined), the AC50 [1] is reported as 35.5 µM [falling, single point].
With `O=C(CC1OC(=O)c2ccccc21)Nc1cccc(S(=O)(=O)N2CCCCCC2)c1` (centres undefined) the AC50 [1] was 15.8 µM [falling, single point].
In the case of `COc1ccc(C/C(O)=C(\C#N)c2nc3ccccc3s2)cc1`, the AC50 [1] is reported as 0.461 µM [falling, partial curve, poor fit].
In the case of `NCCNC(=O)c1c(O)c2cccc3c2n(c1=O)CCC3`, the AC50 [1] is reported as 17.8 µM [falling, partial curve].
For `N/C(Cn1cncn1)=N\OC(=O)c1ccc(Cl)cc1Cl`, the AC50 [1] was 35.5 µM [rising, single point].
For `CC(=O)c1c(C)[nH]c(C(=O)Nc2cccc(S(=O)(=O)N3CCCC3)c2)c1C`, the AC50 [2] was 20.6 µM [falling, single point].
For `O=C(/C=C/c1ccco1)c1ccc(O)cc1`, the AC50 [2] was 11.2 µM [rising, partial curve, poor fit].
For `Cc1nn(-c2ccccc2)c(Cl)c1/C=N/NC(=O)c1ccc(NS(=O)(=O)c2cccs2)cc1`, the AC50 [1] was 17.8 µM [falling, partial curve, poor fit].
In the case of `O=[N+]([O-])c1cnc2nc(-c3ccncc3)nn2c1O`, the AC50 [1] is reported as 2.82 µM [falling, full curve].
In the case of `CS(=O)(=O)N1CCN(c2ccccc2NC(=O)Nc2cccc(Cl)c2)CC1`, the AC50 [1] is reported as 22.4 µM [falling, single point].
In the case of `CC(C)CNC(=O)C(=O)NCC1OCCCN1S(=O)(=O)c1ccc2c(c1)OCCO2` (centres undefined), the AC50 [1] is reported as 0.501 µM [rising, full curve, poor fit].
In the case of `CN(c1ccccc1)S(=O)(=O)c1ccc(C(=O)Nc2nnc(C3=COCCO3)o2)cc1`, the AC50 [1] is reported as 28.2 µM [falling, single point].
In the case of `O=C(Oc1ccc(-c2cnc3ccccc3n2)cc1)c1ccco1`, the AC50 [1] is reported as 2.51 µM [rising, full curve] and the AC50 [2] is reported as 12.6 µM [rising, single point].

From PubChem BioAssay AID493014 (National Center for Advancing Translational Sciences (NCATS), 2011)
